Test results taken from PubChem BioAssay AID624297 (National Center for Advancing Translational Sciences (NCATS), 2012).
Values joined by “and” are separate entries in the source; they are usually repeats but may differ in a detail not shown here. Equal entries are not always repeated. The whole screen tested about 340,000 compounds, of which about 6,200 (1.8%) were called active. This list was built around the results that the source calls inconclusive (neither active nor inactive); the mix of calls is not that of the screen. The call rests on the fitted dose curve; in most records, active means well fitted activation curve with a large enough effect; inconclusive means small, poorly fitted or top-dose-only effect; inactive means no such curve, though single readings can be large or run the other way. A potency beside an inconclusive call is a rough fit, not a confirmed value.

Assay: A quantitative high throughput screen for small molecules that induce DNA re-replication in SW480 colon adenocarcinoma cells. Further: nearly all actives have a fitted effect of over 55% in size. On re-replication activation: % of control where 0% means no effect.
Details: Hoechst DNA content imaging, 48 h; re-replication activation: at 46.1 µM (top of the series) unless noted
Outline: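 Hoechst fluorescence of nuclei (405 nm excitation, 500-530 nm emission) measured by plate-scanning imager after 48 hr compound exposure at 37 C; re-replication scored as increased number of nuclei with elevated intensity.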
Potency means the concentration at half of the fitted maximal effect.

Structure (SMILES) | Potency | re-replication activation
COc1ccc(/C=C/C(=O)CC(O)(c2ccccc2)C(F)(F)F)cc1 (stereo not given) | inconclusive: 29.1 µM [activator, single point] | 
CCCc1cc(C(=O)N2CCCC(Cc3ccccc3C)(C(=O)OCC)C2)no1 (stereo not given) | inconclusive: 6.51 µM [activator, partial curve] | 
CNC(=O)Nc1cc(C(F)(F)F)cc(C(F)(F)F)c1 | inconclusive: 29.1 µM [activator, single point] | 
OCCN(Cc1ccccc1)C(=S)Nc1ccc(Cl)cc1Cl | inconclusive: 29.1 µM [activator, single point] | 
COCCNC(=O)/C(C#N)=C/c1c(N2CCN(c3ccc(OC)cc3)CC2)nc2c(C)cccn2c1=O | inconclusive: 23.1 µM [activator, partial curve, poor fit] | 
CCCCn1c(=O)nc2n(-c3ccc(OC)cc3)c3ccccc3cc-2c1=O | inconclusive: 0.092 µM [activator, full curve, poor fit] | 
C/C=C1\C(OC2OC(CO)C(O)C(O)C2O)OC=C(C(=O)OC)C1CC(=O)OCC1C(C)C(OC(=O)CC2C(C(=O)OC)=COC(OC3OC(CO)C(O)C(O)C3O)/C2=C\C)CC1C(CO)CO (stereo not given) | inconclusive: 2.06 µM [activator, partial curve, poor fit] | 
O=C1CCCN1CCCNC(=S)Nc1ccc(F)c(Cl)c1 | inconclusive: 11.6 µM [activator, partial curve, poor fit] | 
COc1nc(N/N=C/c2cc3c(cc2Br)OCO3)nc(N2CCOCC2)n1 | inconclusive: 20.6 µM [activator, single point] | 
CCC(=O)N1N=C(c2ccc(Cl)cc2)CC1c1ccco1 (stereo not given) | inconclusive: 1.84 µM [activator, partial curve, poor fit] | 
CC1(C)Cc2c(sc3c2c(=N)n(Cc2ccco2)c(=O)n3CC(=O)Nc2cccc(Cl)c2)CO1 |  | inactive: -1.57%
C=CCCCCCCCCc1nc(SCC(C)=O)n[nH]1 |  | inactive: 3.61%
N#C/C(=C\c1ccc(O)c(O)c1)C(=O)NCCCc1ccccc1 | inconclusive: 580 nM [activator, single point] and inconclusive: 29.1 µM [activator, single point] | 
NNC(=O)c1cccn(Cc2cccc(C(F)(F)F)c2)c1=O | inconclusive: 23.1 µM [activator, single point] | 
CCCCCCCCCCCCCCCC(=O)O | inconclusive: 26.6 µM [activator, single point] | 
CN1CCN(c2ccccc2NC(=O)c2ccc(Br)o2)CC1 |  | inactive: 2.75%
Cc1cc(N/N=C/c2ccc(O)cc2)c2cccc(C)c2n1 | inconclusive: 29.1 µM [activator, single point] | 
Cc1ccccc1Nc1c(F)c(F)c(F)c(F)c1C(=O)O | inconclusive: 29.1 µM [activator, single point] | 
CCc1ccc(S(=O)(=O)N/N=C\c2ccc([N+](=O)[O-])o2)cc1 | inconclusive: 23.1 µM [activator, single point] | 
CCOC(=O)C1CCCN(C(=O)COC(=O)c2ccc(C#N)cc2)C1 (stereo not given) | inconclusive: 5.8 µM [activator, full curve, poor fit] | 

Filtered by structure: the entries above containing fluorine (5)
Structure (SMILES) | Potency | re-replication activation
COc1ccc(/C=C/C(=O)CC(O)(c2ccccc2)C(F)(F)F)cc1 (stereo not given) | inconclusive: 29.1 µM [activator, single point] | 
CNC(=O)Nc1cc(C(F)(F)F)cc(C(F)(F)F)c1 | inconclusive: 29.1 µM [activator, single point] | 
O=C1CCCN1CCCNC(=S)Nc1ccc(F)c(Cl)c1 | inconclusive: 11.6 µM [activator, partial curve, poor fit] | 
NNC(=O)c1cccn(Cc2cccc(C(F)(F)F)c2)c1=O | inconclusive: 23.1 µM [activator, single point] | 
Cc1ccccc1Nc1c(F)c(F)c(F)c(F)c1C(=O)O | inconclusive: 29.1 µM [activator, single point] | 

The list continues.

Structure (SMILES) | Potency | re-replication activation
C/C(=C\C(=O)OCCCCCCCCC(=O)O)C[C@@H]1OC[C@H](C[C@@H]2O[C@H]2[C@@H](C)[C@H](C)O)[C@@H](O)[C@H]1O | inactive | 
CCn1c2ccccc2c2cc(NC(=O)CSc3nnc(-c4ccccc4)o3)ccc21 | active: 0.651 µM | 
COc1ccc(N2CCN(C(CNC(=O)CC(C)(C)C)c3ccc4c(c3)OCO4)CC2)cc1 (stereo not given) |  | inactive: -1.5%
CCCN1CCN(C(=O)C2CCN(S(=O)(=O)c3c(C)noc3/C=C/c3ccc(C)cc3)CC2)CC1 | active: 16.4 µM | 
O=C(COC(=O)C1CC1)NCCNC(=O)COC(=O)C1CC1 | inconclusive: 23.1 µM [activator, partial curve, poor fit] | 
CC(=O)c1sc(NC(=O)C2CCN(C(=O)c3ccc(F)cc3)CC2)nc1-c1ccccc1 |  | inactive: 16.1%
O=C(COC(=O)c1ccc[n+]([O-])c1)Nc1ccc([N+](=O)[O-])cc1C(F)(F)F | inconclusive: 0.82 µM [activator, full curve, poor fit] | 
C/C(=N\NC(=O)CN(c1ccccc1Br)S(C)(=O)=O)c1ccc2c(c1)OCCO2 | inconclusive: 1.64 µM [activator, partial curve, poor fit] | 
CCCCOc1ccc2c(C)cc(=O)oc2c1OCCCC |  | inactive: 4.24%
CCn1c(=O)c(C(=O)NCc2ccccn2)c(O)c2ccccc21 | inconclusive: 32.6 µM [activator, partial curve, poor fit] | 
O=C(CN(Cc1ccccc1)S(=O)(=O)c1ccc2c(c1)OCCO2)N/N=C/c1cccc(Br)c1 |  | inactive: 0.264%
CCN(CC)CCOC(=O)c1ccc(NC(=O)CCNC(=O)Cn2ccc3ccccc3c2=O)cc1 |  | inactive: -7.1%
Nc1c(C(=O)NC2CCCC2)sc2nc(-c3cccs3)ccc12 | inconclusive: 32.6 µM [activator, partial curve, poor fit] | 
CCN1C[C@@H]2[C@@H]3C(=O)N(C)C(=O)[C@@H]3[C@](Cc3ccccc3)(C1=O)N2C(=O)c1ccccc1 |  | inactive: -5.23%
CC1=NN(C(N)=S)C(=O)C1N=Nc1ccc([N+](=O)[O-])cc1 (stereo not given) | inconclusive: 3.98 µM [activator, full curve, poor fit] | 
c1ccc([C@H]2CN3C(=N2)Sc2ccccc23)cc1 | inconclusive: 20.6 µM [activator, single point] | 
CNc1oc(Cc2ccccc2)nc1S(=O)(=O)c1ccccc1 | inconclusive: 29.1 µM [activator, partial curve, poor fit] | 
O=C(CSc1nncn1-c1ccccc1)Nc1ccc(N2CCOCC2)cc1 | inconclusive: 20.6 µM [activator, single point] | 
CC(=O)N1c2ccc(F)c(F)c2C[C@H]1C |  | inactive: -2.42%
COc1ccc(S(=O)(=O)c2c(N)n(Cc3ccco3)c3nc4ccccc4nc23)cc1 | inconclusive: 32.6 µM [activator, partial curve, poor fit] | 
